Hit rate of the full screen: of about 300,000 compounds, about 3,700 (1.2%) were called active. The inconclusive results got no clear call from the source; some entries with a clear call stand among them for comparison. Calls follow the shape of the full dose curve; tested in HEK293 cells. Potencies beside an inconclusive call are fits to weak or partial responses and may not hold up.
Test: qHTS for Inhibitors of binding or entry into cells for Lassa Virus; also: nearly all actives have a fitted effect of over 50% in size
Conditions: Lassa virus pseudotype entry inhibition, cell reporter; activity change, negative = inhibition: at 37.9 µM (top of the series) unless noted
% is scaled to controls: 0 for no effect and ±100 for the full control effect; potency is read from the fitted curve at half-maximal effect.

Row | SMILES | activity change, negative = inhibition | Potency
1 | Cc1cc(=O)[nH]c(NN=C2CCCCC2C)n1 (stereo unspecified) | inactive: 1.15% | 
2 | COC(=O)C(NC(=O)c1ccccc1)=C(C)C | inactive: 0.259% | 
3 | CCOc1ccc(-n2c(-c3ccco3)n[nH]c2=S)cc1 | inactive: 8.31% | 
4 | COc1ccc(-c2cc(C(=O)NCCc3ccccc3)c3c(-c4ccccc4)[nH]nc3n2)cc1 |  | inconclusive: 7.94 µM [inhibitor, partial curve]
5 | COc1ccccc1N1CCN(c2nc3ccccc3nc2C(C#N)C(=O)OC(C)C)CC1 (stereo unspecified) |  | inconclusive: 39.8 µM [inhibitor, partial curve, poor fit]
6 | Nc1ccccc1C(=O)N=Nc1[nH]c(N)c2ccccc12 |  | inconclusive: 10.3 µM [activator, partial curve, poor fit]
7 | O=C(NCC(c1cccnc1)N1CCc2ccccc2C1)C(=O)Nc1cccc(Cl)c1 (stereo unspecified) | inactive: 24.2% [at 46.1 µM] | 
8 | Fc1ccccc1CNC(=S)NC1CCCCC1 |  | inconclusive: 11.2 µM [inhibitor, partial curve, poor fit]
9 | N#Cc1ccccc1NC(=O)c1cccc(COc2ccc(Cl)cc2Cl)c1 |  | inconclusive: 1.84 µM [activator, full curve, poor fit]
10 | CCOc1cc(CNCCSc2nnnn2C)cc(Cl)c1OCc1ccc(Cl)cc1 | inactive: -8% [at 46.1 µM] | 
11 | CN(C)c1oc(-c2ccccc2F)nc1C#N | inactive: -0.863% | 
12 | Cc1cc(C(=O)Nc2nc3ccc(Cl)cc3s2)nn1C |  | inconclusive: 0.891 µM [activator, full curve, poor fit]
13 | COc1ccc(Cc2nc(-c3ccc(Cl)cc3)no2)cc1 |  | inconclusive: 20.6 µM [inhibitor, single point]
14 | O=C(C[n+]1ccc2ccccc2c1)c1ccccc1 |  | inconclusive: 5.62 µM [activator, full curve, poor fit]
15 | COc1cc(C(=S)N2CCCC2)ccc1OS(=O)(=O)c1ccc(NC(C)=O)cc1 |  | active: 16.4 µM
16 | COc1ccc(CCC(=O)NNC(=S)Nc2cccc(C(C)=O)c2)cc1 |  | inconclusive: 14.1 µM [inhibitor, partial curve, poor fit]
17 | CN(C)S(=O)(=O)c1cccc(NC(=S)Nc2cccc3cnccc23)c1 |  | inconclusive: 35.5 µM [inhibitor, partial curve, poor fit]
18 | CCOc1ccc(/C=C2\CCc3ccccc3C2=O)cc1 |  | inconclusive: 20 µM [inhibitor, single point]
19 | COc1ccc(OC)c(NC(=O)CSC2=Nc3ccccc3C3=NC(CCC(=O)NC4CCCCC4)C(=O)N23)c1 (stereo unspecified) |  | inconclusive: 35.5 µM [activator, single point]
20 | O=C(CCS(=O)(=O)c1ccccc1)Nc1ccc(-c2nc3ccccc3s2)cc1 |  | inconclusive: 7.94 µM [inhibitor, partial curve, poor fit]
21 | COc1ccc(S(=O)(=O)NCC(c2ccc3c(c2)OCO3)N2CCN(c3ccccc3)CC2)cc1 (stereo unspecified) |  | inconclusive: 11.2 µM [inhibitor, partial curve, poor fit]
22 | Cc1cc(OCC(=O)Nc2cc(S(=O)(=O)N3CCOCC3)ccc2N2CCCC2)ccc1C(C)C |  | inconclusive: 14.1 µM [inhibitor, partial curve, poor fit]

Row | SMILES | activity change, negative = inhibition | Potency
23 | CN(C)C(=O)c1ccc2c(c1)C1C3CCC(C3)C1C(c1ccccc1)N2 (stereo unspecified) |  | inconclusive: 23.1 µM [inhibitor, single point]
24 | CCN(CC)CCCn1c2c(c(SCC(=O)Nc3ccc4c(c3)OCCO4)nc1=O)CCC2 |  | inconclusive: 15.8 µM [inhibitor, single point]
25 | CC(=O)Nc1ccc(-c2cn3cc(C)ccc3n2)cc1 |  | inconclusive: 8.91 µM [inhibitor, partial curve, poor fit]
26 | CSCC(=O)Nc1cc(C)on1 | inactive: 2.86% | 
27 | CCOP(=O)(NC12CC3CC(CC(C3)C1)C2)NC12CC3CC(CC(C3)C1)C2 |  | inconclusive: 3.16 µM [inhibitor, single point]
28 | CCOC(=O)c1cnc2c(ccc3ccccc32)c1Nc1ccc(OC)cc1OC |  | inconclusive: 6.31 µM [inhibitor, single point]
29 | Cc1sc2ncnc(Sc3nnnn3-c3ccccc3)c2c1C |  | inconclusive: 16.4 µM [inhibitor, partial curve, poor fit]
30 | Cc1ccc2cccc(OCCOCCOc3ccccc3Br)c2n1 | inactive: -15.5% | 
31 | CN(C(=O)c1ccc(S(=O)(=O)c2cccc(Cl)c2)c([N+](=O)[O-])c1)C1CCCCC1 |  | inconclusive: 35.5 µM [inhibitor, single point]
32 | CCc1nc(N2CCN(C(=O)c3ccco3)CC2)c(C#N)c2c1COC(C)(C)C2 |  | inconclusive: 4.47 µM [inhibitor, partial curve]
33 | Cc1cccc(Nc2nc(NCc3ccco3)c3ccccc3n2)c1 |  | active: 5.8 µM
34 | Cc1ccc(/C=C/c2nc3ccccc3n2S(=O)(=O)c2ccc(Br)cc2)cc1 |  | inconclusive: 10 µM [activator, partial curve, poor fit]
35 | O=C(/C=C/c1ccc(F)cc1)NC(=S)NNC(=O)c1cnccn1 |  | inconclusive: 7.94 µM [inhibitor, partial curve]
36 | O=C(Cc1ccc(Br)cc1)NCCc1ccc(F)cc1 |  | inconclusive: 12.6 µM [inhibitor, single point]
37 | Cc1ccc(OCC(=O)Nc2ccc(N3CCN(C(=O)c4ccco4)CC3)cc2)cc1C | inactive: -19.8% | 
38 | O=C(Nc1n[nH]c2nc(-c3ccc(O)cc3)c(Br)cc12)C1CC1 |  | inconclusive: 12.5 µM [inhibitor, partial curve, poor fit]
39 | COc1cccc(-c2nc3c(c(SCc4ccccc4Cl)n2)Cc2c(CO)cnc(C)c2O3)c1 | inactive: -13.1% [at 46.1 µM] | 
40 | Fc1ccc(-n2cc(CNCCc3cccnc3)c(-c3ccccc3Cl)n2)cc1 |  | inconclusive: 35.5 µM [inhibitor, single point]
41 | CC(=O)c1ccc(OCC(=O)c2cc(C)n(-c3ccc4c(c3)OCO4)c2C)cc1 |  | inconclusive: 17.8 µM [inhibitor, partial curve, poor fit]
42 | COC(=O)c1ccc(OC(=O)c2cnccn2)cc1 | inactive: -6.27% [at 46.1 µM] | 
43 | Cc1ccc(OCC(=O)NNC(=O)c2ccco2)c(C)c1 |  | inconclusive: 25.1 µM [activator, single point]
44 | Cc1ccc(Nc2ccc(S(=O)(=O)N3CCOCC3)cc2[N+](=O)[O-])cc1C |  | inconclusive: 25.1 µM [inhibitor, single point]

Compounds above that contain a nitro group on carbon:
Row | SMILES | activity change, negative = inhibition | Potency
31 | CN(C(=O)c1ccc(S(=O)(=O)c2cccc(Cl)c2)c([N+](=O)[O-])c1)C1CCCCC1 |  | inconclusive: 35.5 µM [inhibitor, single point]
44 | Cc1ccc(Nc2ccc(S(=O)(=O)N3CCOCC3)cc2[N+](=O)[O-])cc1C |  | inconclusive: 25.1 µM [inhibitor, single point]

Next part.

Row | SMILES | activity change, negative = inhibition | Potency
45 | O=C(Nc1ccc2oc(-c3ccccc3)nc2c1)c1ccc2c(c1)OCCO2 | inactive: -2.06% | 
46 | COc1cc(CN2CCCC(C(=O)c3ccc(C(C)(C)C)cc3)C2)cc(OC)c1O (stereo unspecified) |  | inconclusive: 35.5 µM [inhibitor, single point]
47 | O=C(COc1ccccc1)NCC(c1ccco1)N1CCN(c2ccc(F)cc2)CC1 (stereo unspecified) |  | inconclusive: 11.2 µM [inhibitor, partial curve]
48 | CCOC(=O)c1cc(-c2ccc(OC)cc2)n(CCC(=O)Nc2cccc(C(C)=O)c2)c1C | inactive: -16.7% [at 46.1 µM] | 
49 | COCCn1c(-c2ccc(C#N)cc2)nc2c1c(=O)[nH]c(=O)n2Cc1ccccc1 |  | inconclusive: 2.82 µM [inhibitor, full curve, poor fit]
50 | CC(C)(C)c1ccc(-c2n[nH]c(=S)n2CC2CCCO2)cc1 (stereo unspecified) |  | inconclusive: 1.41 µM [inhibitor, partial curve, poor fit]
51 | CC1(C)Cc2c(sc(NC(=O)c3ccc(S(=O)(=O)N4CCCCCC4)cc3)c2C(N)=O)C(C)(C)N1 |  | inconclusive: 3.98 µM [activator, partial curve, poor fit]
52 | c1ccc(-n2nnnc2-c2cccc3ccccc23)cc1 |  | inconclusive: 10 µM [inhibitor, partial curve]
53 | COc1cc(/C=C(\NC(=O)c2cc(OC)c(OC)c(OC)c2)C(=O)NC(C(=O)O)c2ccccc2)cc(OC)c1OC (stereo unspecified) |  | inconclusive: 0.0891 µM [activator, full curve, poor fit]
54 | COc1ccc2nc3sc(C(=O)N4CCN(c5ccc(F)cc5)CC4)cc3cc2c1 | inactive: 9.29% [at 46.1 µM] | 
55 | O=C(Cn1cnc2cc([N+](=O)[O-])ccc2c1=O)NCc1ccc(Cl)cc1 | inactive: 6.17% | 
56 | CNC(=S)N1N=C(c2ccc(OC)cc2)CC1c1ccc(Cl)cc1Cl (stereo unspecified) |  | inconclusive: 35.5 µM [inhibitor, partial curve, poor fit]
57 | COC1=NC(=C(c2ccccc2)c2ccccc2)OC1=O |  | inconclusive: 5.62 µM [inhibitor, single point]
58 | Cc1ccc(Cl)c(OCC(=O)NCC(c2cccs2)N2CCOCC2)c1 (stereo unspecified) |  | inconclusive: 14.1 µM [inhibitor, single point]
59 | CCC/C(=N\NC(=O)c1csc(C)c1C)c1cccs1 |  | inconclusive: 17.8 µM [inhibitor, partial curve]
60 | O=P(Cc1cc(Br)cc(Br)c1OCCO)(c1ccccc1)c1ccccc1 |  | inconclusive: 0.316 µM [inhibitor, full curve, poor fit]
61 | CC(=O)c1ccc(N2CCN(C(=O)c3ccc4c(=O)n(-c5ccccc5)c(=O)[nH]c4c3)CC2)cc1 | inactive: 8.61% | 
62 | O=C(COc1ccccc1F)Nc1c2c(nn1-c1ccccc1)CS(=O)(=O)C2 | inactive: 1.26% | 
63 | COC(=O)c1cccc(Cn2nnc3ccccc3c2=O)c1 | inactive: 0.527% | 
64 | COc1ccc(CN(C(=O)c2ccco2)c2ccc(C)c(C)c2)cc1 |  | inconclusive: 2.82 µM [inhibitor, full curve]
65 | Nc1nc2c(cnn2CCc2ccccc2)c2nc(-c3ccco3)nn12 |  | inconclusive: 1.3 µM [inhibitor, partial curve, poor fit]
66 | Cc1ccc(-c2nc3cc(N)ccc3o2)c(C)c1 |  | inconclusive: 11.2 µM [inhibitor, partial curve, poor fit]

Quoted at random: two records from the list, in no set order.
Row | SMILES | activity change, negative = inhibition | Potency
47 | O=C(COc1ccccc1)NCC(c1ccco1)N1CCN(c2ccc(F)cc2)CC1 (stereo unspecified) |  | inconclusive: 11.2 µM [inhibitor, partial curve]
48 | CCOC(=O)c1cc(-c2ccc(OC)cc2)n(CCC(=O)Nc2cccc(C(C)=O)c2)c1C | inactive: -16.7% [at 46.1 µM] | 

Reference: PubChem BioAssay AID540256 (National Center for Advancing Translational Sciences (NCATS), 2011)
